Values quoted from earlier work in patent US12048306B1, “1,3-bis(naphthalen-1-yloxy)propan-2-one as an eco-friendly insecticidal agent against Spodoptera littoralis (boisd.)” (priority 2023, dated 2024).
Some of these results come from one statement about several compounds together.

Test system: aquatic insects
Conditions: highly toxic to very highly toxic; cited from earlier work

SMILES | LC50
CCOC(=O)NCCOc1ccc(Oc2ccccc2)cc1 [Fenoxycarb, fenoxycarb] | < 100 µg/mL
COC(C)(C)CCCC(C)C/C=C/C(C)=C/C(=O)OC(C)C (centres unmarked) [methoprene] | < 100 µg/mL
